Experimental data: PubChem BioAssay AID504784 (Drosophila RNAi Screening Center, 2011)
Screen: 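Fly genes whose silencing alters how much lipid cells keep in droplets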 (primary screen). Cell system: Drosophila Kc167 embryonic cells. Knock-down reagent: long dsRNA against Drosophila genes, about 250 ng dsRNA per well. Time to read-out: 4 days. Conditions: cells fed 400 µM oleic acid bound to BSA. Measured: 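Microscope images give a droplet-to-nucleus area ratio, taken as log and converted to a screen-wide B-score; higher values mean greater lipid storage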. Reading the numbers: droplet/nuclear area B-score: higher = more stored lipid (overstorage).
In all, the deposit lists about 17,000 reagents; below is an unselected part of those that have a named target and a result. 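Each column is one replicate's B-score; the combined score over replicates was not deposited, so single values may mislead.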 A plus sign joins genes that one reagent is predicted to hit.

| Target gene | DRSC id | droplet/nuclear area B-score, replicate 1 | droplet/nuclear area B-score, replicate 2 | droplet/nuclear area B-score, replicate 3 |
| --- | --- | --- | --- | --- |
| Acsx2 | DRSC14308 | 3.94 | -0.0323 | – |
| CG33111 | DRSC14208 | -1.75 | 0.0399 | – |
| CG33111 | DRSC14444 | -1.62 | 0.421 | – |
| JYalpha (retired record) + JYalpha | DRSC21700 | -0.101 | -0.0246 | – |
| mRpS31 | DRSC10556 | 1.92 | -0.264 | -0.338 |
| CG32756 | DRSC22505 | -0.00865 | 0.654 | – |
| CG32756 | DRSC23271 | 0.718 | -0.407 | – |
| GM130 | DRSC04617 | 0.871 | -0.099 | – |
| CG13096 | DRSC02198 | 0.206 | -0.0598 | – |
| CG17141 | DRSC15178 | -0.071 | -0.179 | – |
| Taf12L | DRSC00467 | -1.45 | 0.952 | – |
| CG10970 | DRSC17772 | 0.348 | 1.14 | -0.854 |
| kek1 | DRSC03551 | -0.405 | 1.26 | – |
| CG8785 | DRSC07266 | 0.342 | 0.53 | – |
| CG9624 | DRSC16523 | -0.651 | -0.302 | – |
| CG13471 | DRSC10015 | 0.792 | 0.054 | – |
| Sptr | DRSC18719 | -1.32 | -0.58 | -0.796 |
| CG5126 | DRSC00680 | 2.46 | 1.34 | – |
| CG32650 | DRSC19899 | -0.253 | -1.16 | -0.529 |
| Ars2 | DRSC04893 | -1.15 | -1.41 | – |
| CG32188 | DRSC09510 | -0.0571 | -0.332 | – |
| CG32249 | DRSC08101 | -0.982 | 0.463 | 0.2 |
| CG32249 | DRSC08177 | 0.935 | 0.885 | – |
| CG32249 | DRSC22444 | 0.394 | 0.0401 | – |
| CG3107 | DRSC04888 | -1.15 | -1.2 | – |
| CG4301 | DRSC19886 | 0.675 | 1.63 | – |
| CG5556 | DRSC00687 | -0.0083 | 1.49 | – |
| AhcyL1 | DRSC08647 | 0.0376 | 0.046 | – |
| RpS20 | DRSC16836 | 2.12 | 4.3 | – |
| SP2353 | DRSC07545 | 0.534 | 0.0964 | – |
| Argl + CG9515 | DRSC03243 | 1.9 | 1.93 | – |
| Argl + CG9515 | DRSC03245 | 1.87 | 0.0546 | – |
| CG32284 | DRSC08025 | 0.561 | 0.698 | – |
| CG17580 | DRSC06683 | 0.148 | 0.131 | – |

Ordered by “droplet/nuclear area B-score, replicate 2” (highest first): 4 of the entries above
| Target gene | DRSC id | droplet/nuclear area B-score, replicate 1 | droplet/nuclear area B-score, replicate 2 | droplet/nuclear area B-score, replicate 3 |
| --- | --- | --- | --- | --- |
| CG10970 | DRSC17772 | 0.348 | 1.14 | -0.854 |
| Taf12L | DRSC00467 | -1.45 | 0.952 | – |
| CG13096 | DRSC02198 | 0.206 | -0.0598 | – |
| CG17141 | DRSC15178 | -0.071 | -0.179 | – |
